Values from PubChem BioAssay AID1259254 (NCATS, 2017).
The deposit covers about 59,000 reagents; this is a random part of them. About 1,550 of them (2.6%) count as active. 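G2 share is only a proxy for re-replication; each gene was hit by three separate siRNAs, and active genes were retested.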 The raw values are shown without normalisation. The numbers tell different reagents against one gene apart. Not stated in the record: the amount of reagent.

Test: 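Finding genes that stop cells copying their DNA twice in one cycle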 (primary screen)
Cells: human HCT116 colorectal cancer cells
Reagent: single siRNA against human genes
Time to read-out: 3 days
Measurement: 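Imaged Hoechst DNA stain sorts each cell into a cycle phase by DNA amount; per plate, G2 fraction set to 0% for non-targeting and 100% for GMNN siRNA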
Reading the numbers: G2 robust z-score and G2 cells, % of GMNN control: higher = more G2 cells, more excess DNA replication; raw share of cells in G2: higher = larger share of cells with G2 DNA content
Active means: 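An siRNA counts as active if its G2 robust z-score lies at least 5 MADs above the screen median; here such calls match roughly 38% of GMNN control or more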

The opening 2 entries, ahead of the listing:
Target gene | siRNA no. | G2 robust z-score | G2 cells, % of GMNN control | raw share of cells in G2 (%) | activity call
ZNF892 | 1 | -0.43 | -0.061 | 3.97 | inactive
ZNF892 | 2 | 0.288 | 4.99 | 5.44 | inactive

The listing, from the first entry:
Target gene | siRNA no. | G2 robust z-score | G2 cells, % of GMNN control | raw share of cells in G2 (%) | activity call
ZNF892 | 1 | -0.43 | -0.061 | 3.97 | inactive
ZNF892 | 2 | 0.288 | 4.99 | 5.44 | inactive
ZNF892 | 3 | -0.335 | 0.608 | 4.43 | inactive
PABPC3 | 1 | 1.2 | 11.4 | 9.5 | inactive
PABPC3 | 2 | 0.477 | 6.32 | 7.32 | inactive
PABPC3 | 3 | -0.743 | -2.26 | 2.43 | inactive
MRPL47 | 1 | -1.4 | -6.89 | 1.63 | inactive
MRPL47 | 2 | -0.0769 | 2.43 | 5.62 | inactive
MRPL47 | 3 | -0.328 | 0.656 | 3.24 | inactive
C5orf46 | 1 | -1.33 | -6.38 | 1.58 | inactive
C5orf46 | 2 | -0.201 | 1.56 | 4.08 | inactive
C5orf46 | 3 | 1.62 | 14.3 | 10.8 | inactive
CCR2 | 1 | 0.0989 | 3.66 | 4.53 | inactive
CCR2 | 2 | 0.737 | 8.15 | 8.76 | inactive
CCR2 | 3 | -0.788 | -2.57 | 3.62 | inactive
CCR2 | 4 | -0.561 | -0.978 | 2.97 | inactive
CCR2 | 5 | 2.48 | 20.4 | 11.8 | inactive
CCR2 | 6 | 3.33 | 26.4 | 11.8 | inactive
LSM6 | 1 | 0.0821 | 3.54 | 5.08 | inactive
LSM6 | 2 | 0.662 | 7.62 | 9.43 | inactive
LSM6 | 3 | -0.286 | 0.952 | 4.47 | inactive
LSM6 | 4 | -0.512 | -0.637 | 3.84 | inactive
LSM6 | 5 | 0.758 | 8.3 | 6.02 | inactive
LSM6 | 6 | -0.273 | 1.05 | 3.56 | inactive
MUCL3 | 1 | 0.554 | 6.87 | 6.76 | inactive
MUCL3 | 2 | 0.883 | 9.18 | 6.01 | inactive
MUCL3 | 3 | -0.767 | -2.43 | 1.7 | inactive
MKRN1 | 1 | 0.0592 | 3.38 | 7.7 | inactive
MKRN1 | 2 | -0.381 | 0.29 | 4.28 | inactive
MKRN1 | 3 | 5.34 | 40.5 | 17.3 | active
